No constants are given. Whether binding was seen depends on the method and setting. In cells and extracts the contact can be indirect. Here binding means that the protein was enriched with, or labelled near, the bait; the list need not be complete. For some assays here: Tags and fused reporters may be left off the sequences shown.
T1: FLAG-BirA*-SHLD2 (human) (UniProt Q86V20)
T1 sequence: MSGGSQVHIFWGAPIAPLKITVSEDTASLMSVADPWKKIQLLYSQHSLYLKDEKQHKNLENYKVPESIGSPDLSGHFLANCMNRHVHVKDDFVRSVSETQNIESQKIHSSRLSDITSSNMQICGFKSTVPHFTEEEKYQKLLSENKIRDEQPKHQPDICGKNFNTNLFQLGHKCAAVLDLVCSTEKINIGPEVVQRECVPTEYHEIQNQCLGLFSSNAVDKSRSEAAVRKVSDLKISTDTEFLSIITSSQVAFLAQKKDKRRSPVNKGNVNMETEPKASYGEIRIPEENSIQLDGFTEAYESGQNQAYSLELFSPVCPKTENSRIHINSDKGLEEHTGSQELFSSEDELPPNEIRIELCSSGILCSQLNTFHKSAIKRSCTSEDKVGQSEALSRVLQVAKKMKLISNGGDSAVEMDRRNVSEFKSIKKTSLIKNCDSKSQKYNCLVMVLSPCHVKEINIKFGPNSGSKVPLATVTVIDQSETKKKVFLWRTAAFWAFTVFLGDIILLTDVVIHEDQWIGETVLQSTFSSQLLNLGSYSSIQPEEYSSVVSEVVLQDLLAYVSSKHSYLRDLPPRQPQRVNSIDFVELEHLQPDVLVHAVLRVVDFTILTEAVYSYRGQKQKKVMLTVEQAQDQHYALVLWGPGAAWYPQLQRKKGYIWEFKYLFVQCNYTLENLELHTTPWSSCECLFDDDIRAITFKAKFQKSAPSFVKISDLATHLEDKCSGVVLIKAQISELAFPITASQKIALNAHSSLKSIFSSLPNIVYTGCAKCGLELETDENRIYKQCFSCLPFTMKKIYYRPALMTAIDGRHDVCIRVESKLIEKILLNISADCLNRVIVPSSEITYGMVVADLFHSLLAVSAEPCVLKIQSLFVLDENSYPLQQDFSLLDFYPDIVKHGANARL

Chains of the proteins cited; added tags and fusions are not shown.
UniProt Q9UI95: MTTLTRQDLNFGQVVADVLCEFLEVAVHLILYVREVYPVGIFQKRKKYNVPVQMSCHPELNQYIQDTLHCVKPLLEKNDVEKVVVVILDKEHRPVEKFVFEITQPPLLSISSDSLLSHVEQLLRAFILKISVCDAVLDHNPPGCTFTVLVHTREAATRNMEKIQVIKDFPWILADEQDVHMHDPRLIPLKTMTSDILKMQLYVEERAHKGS
UniProt Q93034: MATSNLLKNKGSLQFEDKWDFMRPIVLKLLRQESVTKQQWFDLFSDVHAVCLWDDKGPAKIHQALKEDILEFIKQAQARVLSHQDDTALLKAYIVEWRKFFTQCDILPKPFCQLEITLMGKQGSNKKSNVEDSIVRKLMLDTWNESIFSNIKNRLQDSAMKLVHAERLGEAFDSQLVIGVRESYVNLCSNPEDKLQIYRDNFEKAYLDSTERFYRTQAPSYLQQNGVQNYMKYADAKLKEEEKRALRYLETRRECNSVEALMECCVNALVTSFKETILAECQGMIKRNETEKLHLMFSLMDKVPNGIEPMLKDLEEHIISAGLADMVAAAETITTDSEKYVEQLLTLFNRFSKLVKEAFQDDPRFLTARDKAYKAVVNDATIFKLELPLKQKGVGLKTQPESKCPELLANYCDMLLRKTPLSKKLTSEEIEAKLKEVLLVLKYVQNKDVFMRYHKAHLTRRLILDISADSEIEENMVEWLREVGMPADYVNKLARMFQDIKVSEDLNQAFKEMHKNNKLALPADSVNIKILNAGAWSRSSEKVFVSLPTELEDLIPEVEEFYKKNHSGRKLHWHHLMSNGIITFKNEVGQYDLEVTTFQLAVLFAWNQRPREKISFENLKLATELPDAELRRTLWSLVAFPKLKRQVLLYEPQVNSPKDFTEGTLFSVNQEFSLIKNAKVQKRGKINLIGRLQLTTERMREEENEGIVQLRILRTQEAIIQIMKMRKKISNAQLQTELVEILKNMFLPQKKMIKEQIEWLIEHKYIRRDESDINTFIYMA
UniProt Q14258: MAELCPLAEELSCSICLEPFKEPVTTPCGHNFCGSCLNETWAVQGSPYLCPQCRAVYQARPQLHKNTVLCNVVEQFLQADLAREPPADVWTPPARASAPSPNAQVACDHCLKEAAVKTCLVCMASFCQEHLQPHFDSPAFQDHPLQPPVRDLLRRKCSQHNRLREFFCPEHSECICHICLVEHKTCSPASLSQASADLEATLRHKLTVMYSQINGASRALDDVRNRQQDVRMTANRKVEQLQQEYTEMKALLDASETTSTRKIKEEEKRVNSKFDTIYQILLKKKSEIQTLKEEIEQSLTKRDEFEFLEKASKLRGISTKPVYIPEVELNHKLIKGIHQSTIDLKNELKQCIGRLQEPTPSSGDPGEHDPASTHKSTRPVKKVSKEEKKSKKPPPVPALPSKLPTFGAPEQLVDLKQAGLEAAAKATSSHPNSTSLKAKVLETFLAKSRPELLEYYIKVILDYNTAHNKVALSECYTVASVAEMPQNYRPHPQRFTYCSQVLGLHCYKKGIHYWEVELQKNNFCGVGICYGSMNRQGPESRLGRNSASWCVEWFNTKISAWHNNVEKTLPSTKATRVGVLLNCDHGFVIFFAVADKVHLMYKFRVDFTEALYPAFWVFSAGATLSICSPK
UniProt Q7L5N1: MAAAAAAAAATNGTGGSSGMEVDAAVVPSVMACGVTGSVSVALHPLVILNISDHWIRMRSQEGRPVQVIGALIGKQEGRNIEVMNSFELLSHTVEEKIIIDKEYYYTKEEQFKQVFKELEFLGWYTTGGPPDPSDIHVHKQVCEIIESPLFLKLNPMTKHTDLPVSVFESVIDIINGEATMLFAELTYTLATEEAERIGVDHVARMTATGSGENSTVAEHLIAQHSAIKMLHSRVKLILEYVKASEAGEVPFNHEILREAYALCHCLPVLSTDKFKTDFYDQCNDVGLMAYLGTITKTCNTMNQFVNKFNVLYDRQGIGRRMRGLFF
UniProt Q13620: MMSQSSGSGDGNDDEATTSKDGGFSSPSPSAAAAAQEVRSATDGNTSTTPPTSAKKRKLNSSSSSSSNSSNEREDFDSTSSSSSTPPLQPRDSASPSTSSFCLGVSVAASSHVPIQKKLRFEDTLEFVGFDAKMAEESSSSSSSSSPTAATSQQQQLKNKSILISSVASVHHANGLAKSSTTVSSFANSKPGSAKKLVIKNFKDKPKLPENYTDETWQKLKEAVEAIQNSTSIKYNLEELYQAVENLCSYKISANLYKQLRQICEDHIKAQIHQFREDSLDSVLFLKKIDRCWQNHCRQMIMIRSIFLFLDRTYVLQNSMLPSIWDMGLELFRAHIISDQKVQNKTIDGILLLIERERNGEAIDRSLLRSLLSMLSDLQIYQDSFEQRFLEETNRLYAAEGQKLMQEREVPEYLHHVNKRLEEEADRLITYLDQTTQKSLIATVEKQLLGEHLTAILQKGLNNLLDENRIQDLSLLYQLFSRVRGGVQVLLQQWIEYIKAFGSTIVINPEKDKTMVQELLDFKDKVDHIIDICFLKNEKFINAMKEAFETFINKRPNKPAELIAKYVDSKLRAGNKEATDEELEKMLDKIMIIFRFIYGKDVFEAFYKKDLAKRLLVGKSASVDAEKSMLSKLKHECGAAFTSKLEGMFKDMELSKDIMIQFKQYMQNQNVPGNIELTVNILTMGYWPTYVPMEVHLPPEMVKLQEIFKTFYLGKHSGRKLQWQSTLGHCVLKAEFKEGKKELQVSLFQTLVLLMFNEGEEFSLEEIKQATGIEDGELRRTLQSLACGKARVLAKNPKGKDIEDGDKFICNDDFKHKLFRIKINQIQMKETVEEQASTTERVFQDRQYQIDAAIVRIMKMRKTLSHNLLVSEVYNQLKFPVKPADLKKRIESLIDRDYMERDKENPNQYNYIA
UniProt Q16531: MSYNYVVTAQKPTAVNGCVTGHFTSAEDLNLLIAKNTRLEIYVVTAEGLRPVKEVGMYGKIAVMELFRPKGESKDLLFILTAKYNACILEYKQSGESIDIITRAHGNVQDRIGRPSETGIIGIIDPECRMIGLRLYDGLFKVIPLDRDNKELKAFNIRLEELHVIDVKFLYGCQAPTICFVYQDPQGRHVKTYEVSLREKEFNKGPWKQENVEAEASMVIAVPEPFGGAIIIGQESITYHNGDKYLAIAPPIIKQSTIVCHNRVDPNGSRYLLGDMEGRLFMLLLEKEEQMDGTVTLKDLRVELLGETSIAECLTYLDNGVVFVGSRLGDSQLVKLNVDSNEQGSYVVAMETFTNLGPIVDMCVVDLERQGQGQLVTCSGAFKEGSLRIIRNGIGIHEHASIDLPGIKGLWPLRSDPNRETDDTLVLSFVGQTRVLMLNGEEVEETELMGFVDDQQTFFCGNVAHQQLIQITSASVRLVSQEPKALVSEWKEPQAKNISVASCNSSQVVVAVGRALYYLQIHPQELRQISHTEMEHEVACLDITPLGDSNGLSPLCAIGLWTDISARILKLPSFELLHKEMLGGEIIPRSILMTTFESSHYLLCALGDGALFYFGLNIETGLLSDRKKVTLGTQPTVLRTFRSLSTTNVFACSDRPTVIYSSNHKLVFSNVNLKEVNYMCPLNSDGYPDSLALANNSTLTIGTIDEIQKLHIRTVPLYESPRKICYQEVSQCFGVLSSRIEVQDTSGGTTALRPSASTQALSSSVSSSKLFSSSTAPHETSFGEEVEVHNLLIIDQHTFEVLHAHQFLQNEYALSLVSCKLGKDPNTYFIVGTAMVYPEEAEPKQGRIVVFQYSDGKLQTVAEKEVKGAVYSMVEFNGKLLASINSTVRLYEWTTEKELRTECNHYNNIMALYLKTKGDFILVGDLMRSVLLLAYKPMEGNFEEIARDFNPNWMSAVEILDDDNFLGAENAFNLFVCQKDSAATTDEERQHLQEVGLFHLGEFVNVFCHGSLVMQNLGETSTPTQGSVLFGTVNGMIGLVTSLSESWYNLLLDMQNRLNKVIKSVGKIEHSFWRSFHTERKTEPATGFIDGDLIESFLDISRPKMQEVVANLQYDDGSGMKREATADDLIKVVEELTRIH


Experiments:
[1] = biological target: T1, FLAG-BirA*-SHLD2 (human); test: proximity labelling; BioID: FLAG-BirA*-SHLD2 transiently transfected in HEK293-T, 50 uM biotin, with or without NCS; RIPA lysis, streptavidin-sepharose, MS
[2] = biological target: Flag-REV7 (human) (UniProt Q9UI95); test: affinity purification with mass spectrometry; Flag-REV7 stably expressed in HEK293 Flp-In/T-REx as bait; extracts of cells with or without neocarzinostatin (NCS); triplicate; SAINTexpress scoring
[3] = biological target: BirA*-Flag-REV7 (human) (UniProt Q9UI95); test: proximity labelling; BioID: BirA*-REV7 stably expressed in HEK293 T-REx, 50 uM biotin, with or without NCS (150 ng/ml); RIPA lysis, streptavidin-sepharose, MS; triplicate

Row | Molecule | binding [1] | binding [2] | binding [3]
1 | CUL5 (from UniProt Q93034 1-780) | binds | – | –
2 | E3 Ubiquitin ligase TRIM25 (from UniProt Q14258 1-630) | binds | – | –
3 | REV7 (endogenous) (from UniProt Q9UI95 1-211) | binds | – | –
4 | chromosome alignment-maintaining phosphoprotein (CHAMP1) (protein, UniProt Q96JM3 1-812) MEAFQELRKPSARLECDHCSFRGTDYENVQIHMGTIHPEFCDEMDAGGLGKMIFYQKSAKLFHCHKCFFTSKMYSNVYYHITSKHASPDKWNDKPKNQLNKETDPVKSPPLPEHQKIPCNSAEPKSIPALSMETQKLGSVLSPESPKPTPLTPLEPQKPGSVVSPELQTPLPSPEPSKPASVSSPEPPKSVPVCESQKLAPVPSPEPQKPAPVSPESVKATLSNPKPQKQSHFPETLGPPSASSPESPVLAASPEPWGPSPAASPESRKSARTTSPEPRKPSPSESPEPWKPFPAVSPEPRRPAPAVSPGSWKPGPPGSPRPWKSNPSASSGPWKPAKPAPSVSPGPWKPIPSVSPGPWKPTPSVSSASWKSSSVSPSSWKSPPASPESWKSGPPELRKTAPTLSPEHWKAVPPVSPELRKPGPPLSPEIRSPAGSPELRKPSGSPDLWKLSPDQRKTSPASLDFPESQKSSRGGSPDLWKSSFFIEPQKPVFPETRKPGPSGPSESPKAASDIWKPVLSIDTEPRKPALFPEPAKTAPPASPEARKRALFPEPRKHALFPELPKSALFSESQKAVELGDELQIDAIDDQKCDILVQEELLASPKKLLEDTLFPSSKKLKKDNQESSDAELSSSEYIKTDLDAMDIKGQESSSDQEQVDVESIDFSKENKMDMTSPEQSRNVLQFTEEKEAFISEEEIAKYMKRGKGKYYCKICCCRAMKKGAVLHHLVNKHNVHSPYKCTICGKAFLLESLLKNHVAAHGQSLLKCPRCNFESNFPRGFKKHLTHCQSRHNEEANKKLMEALEPPLEEQQI | – | binds | binds

Other lines, results leading:

Row | binding [1] | binding [2] | binding [3] | Molecule
5 | binds | – | – | COPS4 (from UniProt Q9BT78 1-406)
6 | binds | – | – | COPS6 (from UniProt Q7L5N1 1-327)
7 | binds | – | – | CUL4B (from UniProt Q13620 1-913)
8 | binds | – | – | DDB1 (from UniProt Q16531 1-1140)
9 | – | binds | binds | SHLD2 (endogenous) (protein, UniProt Q86V20-2 1-904) MSGGSQVHIFWGAPIAPLKITVSEDTASLMSVADPWKKIQLLYSQHSLYLKDEKQHKNLENYKVPESIGSPDLSGHFLANCMNRHVHVKDDFVRSVSETQNIESQKIHSSRLSDITSSNMQICGFKSTVPHFTEEEKYQKLLSENKIRDEQPKHQPDICGKNFNTNLFQLGHKCAAVLDLVCSTEKINIGPEVVQRECVPTEYHEIQNQCLGLFSSNAVDKSRSEAAVRKVSDLKISTDTEFLSIITSSQVAFLAQKKDKRRSPVNKGNVNMETEPKASYGEIRIPEENSIQLDGFTEAYESGQNQAYSLELFSPVCPKTENSRIHINSDKGLEEHTGSQELFSSEDELPPNEIRIELCSSGILCSQLNTFHKSAIKRSCTSEDKVGQSEALSRVLQVAKKMKLISNGGDSAVEMDRRNVSEFKSIKKTSLIKNCDSKSQKYNCLVMVLSPCHVKEINIKFGPNSGSKVPLATVTVIDQSETKKKVFLWRTAAFWAFTVFLGDIILLTDVVIHEDQWIGETVLQSTFSSQLLNLGSYSSIQPEEYSSVVSEVVLQDLLAYVSSKHSYLRDLPPRQPQRVNSIDFVELEHLQPDVLVHAVLRVVDFTILTEAVYSYRGQKQKKVMLTVEQAQDQHYALVLWGPGAAWYPQLQRKKGYIWEFKYLFVQCNYTLENLELHTTPWSSCECLFDDDIRAITFKAKFQKSAPSFVKISDLATHLEDKCSGVVLIKAQISELAFPITASQKIALNAHSSLKSIFSSLPNIVYTGCAKCGLELETDENRIYKQCFSCLPFTMKKIYYRPALMTAIDGRHDVCIRVESKLIEKILLNISADCLNRVIVPSSEITYGMVVADLFHSLLAVSAEPCVLKIQSLFVLDENSYPLQQDFSLLDFYPDIVKHGANARL

Source: article PMC6138439
